Experimental data reported in article PMC5688218.
No constants are given. Whether binding was seen depends on the method and setting. Some results given as binding are weak or reduced against the parent protein; the word gives no strength.

Amino acid sequences for entries named in this document (tags omitted). Residues count along the entry.
UniProt Q96EQ9: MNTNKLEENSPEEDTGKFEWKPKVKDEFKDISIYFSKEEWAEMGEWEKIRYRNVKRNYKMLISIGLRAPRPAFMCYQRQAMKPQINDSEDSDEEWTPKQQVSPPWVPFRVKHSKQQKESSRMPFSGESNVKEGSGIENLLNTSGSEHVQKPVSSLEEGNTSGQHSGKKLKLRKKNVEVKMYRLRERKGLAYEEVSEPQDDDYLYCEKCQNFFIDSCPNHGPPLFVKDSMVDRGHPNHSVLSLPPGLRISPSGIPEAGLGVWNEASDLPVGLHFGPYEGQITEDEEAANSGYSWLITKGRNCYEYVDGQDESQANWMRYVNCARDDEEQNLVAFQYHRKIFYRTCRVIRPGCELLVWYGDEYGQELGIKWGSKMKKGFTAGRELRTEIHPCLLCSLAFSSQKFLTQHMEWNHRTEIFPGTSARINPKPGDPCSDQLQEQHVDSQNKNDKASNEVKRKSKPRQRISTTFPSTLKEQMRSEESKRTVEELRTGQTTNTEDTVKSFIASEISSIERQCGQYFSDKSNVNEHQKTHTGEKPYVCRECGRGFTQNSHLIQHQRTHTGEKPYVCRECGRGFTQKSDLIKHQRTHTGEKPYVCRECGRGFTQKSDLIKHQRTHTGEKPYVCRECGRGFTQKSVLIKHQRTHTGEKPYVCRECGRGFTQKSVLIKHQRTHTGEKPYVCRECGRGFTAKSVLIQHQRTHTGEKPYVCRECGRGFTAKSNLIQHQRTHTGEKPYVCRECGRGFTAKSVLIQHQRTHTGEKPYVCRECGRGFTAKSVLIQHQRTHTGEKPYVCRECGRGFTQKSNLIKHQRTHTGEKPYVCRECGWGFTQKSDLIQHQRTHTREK
UniProt Q9QWF0, residues 397-911: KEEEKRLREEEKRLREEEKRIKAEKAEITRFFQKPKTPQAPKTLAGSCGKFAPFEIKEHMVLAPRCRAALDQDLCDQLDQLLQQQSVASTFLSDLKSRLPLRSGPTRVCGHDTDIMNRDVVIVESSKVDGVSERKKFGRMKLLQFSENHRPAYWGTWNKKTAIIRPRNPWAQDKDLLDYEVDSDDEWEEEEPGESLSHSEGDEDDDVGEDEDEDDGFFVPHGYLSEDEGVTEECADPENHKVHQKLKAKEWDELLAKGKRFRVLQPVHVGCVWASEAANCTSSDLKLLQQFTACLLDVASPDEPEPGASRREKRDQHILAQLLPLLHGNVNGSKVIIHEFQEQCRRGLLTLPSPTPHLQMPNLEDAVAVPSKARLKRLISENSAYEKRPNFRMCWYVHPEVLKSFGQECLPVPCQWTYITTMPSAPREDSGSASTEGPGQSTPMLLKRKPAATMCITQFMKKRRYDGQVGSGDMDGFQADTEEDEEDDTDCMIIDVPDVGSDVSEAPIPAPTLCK
UniProt Q99L90: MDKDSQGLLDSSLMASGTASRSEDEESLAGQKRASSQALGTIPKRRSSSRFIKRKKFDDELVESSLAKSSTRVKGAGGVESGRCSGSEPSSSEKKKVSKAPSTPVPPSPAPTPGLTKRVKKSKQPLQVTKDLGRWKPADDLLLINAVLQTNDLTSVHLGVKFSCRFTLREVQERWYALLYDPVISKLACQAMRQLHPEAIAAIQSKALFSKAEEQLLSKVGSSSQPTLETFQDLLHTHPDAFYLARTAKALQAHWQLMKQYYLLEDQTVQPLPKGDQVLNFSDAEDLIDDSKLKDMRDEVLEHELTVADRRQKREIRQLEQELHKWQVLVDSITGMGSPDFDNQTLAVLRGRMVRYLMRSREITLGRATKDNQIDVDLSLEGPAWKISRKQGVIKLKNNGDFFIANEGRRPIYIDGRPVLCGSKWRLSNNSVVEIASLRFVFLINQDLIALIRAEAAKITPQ
UniProt Q9CQJ2, residues 42-290: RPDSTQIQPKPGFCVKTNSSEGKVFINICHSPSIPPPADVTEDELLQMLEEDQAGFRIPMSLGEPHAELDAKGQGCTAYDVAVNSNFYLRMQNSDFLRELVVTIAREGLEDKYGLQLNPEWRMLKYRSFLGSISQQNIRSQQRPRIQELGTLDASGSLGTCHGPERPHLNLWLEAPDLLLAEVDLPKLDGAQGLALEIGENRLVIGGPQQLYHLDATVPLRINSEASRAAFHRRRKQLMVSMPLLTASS

These substances were tested against mouse PRDM9, full length (Gal4 BD-PRDM9 FL) (mouse) (UniProt Q96EQ9) (assay: two-hybrid; Gal4 AD fusions (Y187) mated with Gal4 BD fusions (AH109); growth of diploids on −LWH and −LWHAd after 3 days at 30 °C, by streaking or spotting; 5 mM 3-AT added to −LWH for self-activating constructs).

binding, binds:
mouse CHAF1A 397–911 (Gal4 AD fusion) (from UniProt Q9QWF0 397-911) (domain or fragment)
mouse MCRS1, full length (Gal4 AD fusion) (from UniProt Q99L90 1-462)
mouse PIH1D1 42–290 (Gal4 AD fusion) (from UniProt Q9CQJ2 42-290) (domain or fragment)
